Record: PubChem BioAssay AID1159578 (Peter MacCallum Cancer Centre, 2015)
Purpose: 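Genome-wide hunt for genes controlling movement of lymphatic endothelial cells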 (primary screen). System: human lymphatic endothelial cells. Knock-down reagent: siRNA pool against human genes, 40 nM. Time to read-out: 48 h after transfection. Measurement: 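High-content imaging of dye-stained cells in a scratch assay measures filled wound area and nuclei per well; duplicate means given as ratio to mock and robust z-score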. Scale: migration robust z-score: higher = faster migration into the scratch; migration relative to mock: higher = more scratch area covered than mock; nuclei per well: higher = more cells in the well. Hit rule: 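Migration changed when robust z exceeds 2 or falls below -2 and mean nuclei number is at least 3300; otherwise not called changed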. Calls: active = migration changed; inactive = no migration change, or too few cells.
Here is an unselected part of about 18,000 deposited reagents. About 1,030 of all reagents (5.7%) were called active. 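Inactive calls also include pools with fewer than 3300 nuclei, whose migration was not assessed.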 Raw values are not corrected between plates. Reagent sequences are not shown.

no.	gene knocked down	migration robust z-score	migration class with cell-count check	migration relative to mock	nuclei per well, duplicate mean	Outcome
1	CD109	-0.18	migration z between -2 and 2; enough cells	0.84	6344	inactive
2	SEPTIN5	-0.34	migration z between -2 and 2; enough cells	0.74	4997	inactive
3	DRC11	0.62	migration z between -2 and 2; enough cells	1.04	5964	inactive
4	CDH6	-0.87	migration z between -2 and 2; enough cells	0.66	5677	inactive
5	CBX7	-0.62	migration z between -2 and 2; enough cells	0.68	4964	inactive
6	NRIP3	0.33	migration z between -2 and 2; enough cells	0.97	5672	inactive
7	RRN3	-0.72	migration z between -2 and 2; enough cells	0.7	5833	inactive
8	CEACAM21	0.18	migration z between -2 and 2; enough cells	0.93	6568	inactive
9	HPCA	1.18	migration z between -2 and 2; enough cells	1.19	6465	inactive
10	DUSP19	1.58	migration z between -2 and 2; enough cells	1.11	6167	inactive
11	USP38	0.03	migration z between -2 and 2; enough cells	0.81	5219	inactive
12	NDST4	0.68	migration z between -2 and 2; enough cells	0.94	5840	inactive
13	GADD45A	0.83	migration z between -2 and 2; enough cells	0.97	6182	inactive
14	ELP2	-2.66	migration z below -2; enough cells	0.18	3906	active
15	OTOL1	-1.15	migration z between -2 and 2; enough cells	0.58	6246	inactive
16	STARD7	-0.4	migration z between -2 and 2; enough cells	0.79	3882	inactive
17	PPM1A	-1.06	migration z between -2 and 2; enough cells	0.6	4942	inactive
18	FUOM	-1.48	migration z between -2 and 2; enough cells	0.5	5256	inactive
19	ANXA2	-0.56	migration z between -2 and 2; enough cells	0.74	5180	inactive
20	MANEAL	0.89	migration z between -2 and 2; enough cells	1.12	5178	inactive
21	AP1S3	0.56	migration z between -2 and 2; enough cells	1.03	6354	inactive
22	GPATCH1	0.5	migration z between -2 and 2; enough cells	1.02	5548	inactive
23	MICU1	-0.08	under 3300 nuclei; migration not judged	0.86	2656	inactive
24	SRSF12	0.43	migration z between -2 and 2; enough cells	1	5979	inactive

Already shown: 3 of the entries above.
no.	gene knocked down	migration robust z-score	migration class with cell-count check	migration relative to mock	nuclei per well, duplicate mean	Outcome
7	RRN3	-0.72	migration z between -2 and 2; enough cells	0.7	5833	inactive
8	CEACAM21	0.18	migration z between -2 and 2; enough cells	0.93	6568	inactive
9	HPCA	1.18	migration z between -2 and 2; enough cells	1.19	6465	inactive

Further results follow:
no.	gene knocked down	migration robust z-score	migration class with cell-count check	migration relative to mock	nuclei per well, duplicate mean	Outcome
25	COQ7	0.75	migration z between -2 and 2; enough cells	1.08	5948	inactive
26	EXOC3L1	0.75	migration z between -2 and 2; enough cells	1.07	4912	inactive
27	ABI2	-0.69	migration z between -2 and 2; enough cells	0.7	5880	inactive
28	POTEA	0.75	migration z between -2 and 2; enough cells	1.08	5625	inactive
29	SKA3	2.17	migration z above 2; enough cells	1.44	4048	active
30	SIGLEC5	-0.15	migration z between -2 and 2; enough cells	0.85	4971	inactive
31	PLPPR3	0.88	migration z between -2 and 2; enough cells	1.12	5628	inactive
32	COASY	-4.34	under 3300 nuclei; migration not judged	-0.03	3028	inactive
33	LGALSL	0.44	migration z between -2 and 2; enough cells	1	5191	inactive
34	BEST1	-1.12	migration z between -2 and 2; enough cells	0.6	5390	inactive
35	NIFK	-0.12	migration z between -2 and 2; enough cells	0.86	5484	inactive
36	NOAZFP	-0.28	migration z between -2 and 2; enough cells	0.75	4645	inactive
37	AGAP1	1.19	migration z between -2 and 2; enough cells	1.19	7141	inactive
38	TMEM200A	0.68	migration z between -2 and 2; enough cells	1.06	6103	inactive
39	PPAN-P2RY11	0.02	migration z between -2 and 2; enough cells	0.88	5700	inactive
40	TSPO	-3.68	under 3300 nuclei; migration not judged	0.1	3081	inactive
41	CNOT10	2.17	migration z above 2; enough cells	1.45	6592	active
42	MT1X	1.05	migration z between -2 and 2; enough cells	1.16	5816	inactive
43	SLC35A3	-1.12	migration z between -2 and 2; enough cells	0.59	4523	inactive
44	CTSF	-0.91	migration z between -2 and 2; enough cells	0.63	5223	inactive
45	DFFB	0.05	migration z between -2 and 2; enough cells	0.82	6085	inactive
46	TRUB2	0.43	migration z between -2 and 2; enough cells	1	5627	inactive
47	MACROH2A1	-0.41	migration z between -2 and 2; enough cells	0.78	6527	inactive
48	UCHL1	-0.13	migration z between -2 and 2; enough cells	0.78	5288	inactive
49	SIDT2	-0.85	migration z between -2 and 2; enough cells	0.66	5418	inactive
50	CEP152	0.56	migration z between -2 and 2; enough cells	1.03	6326	inactive
51	ZNF91	-1.38	migration z between -2 and 2; enough cells	0.52	5976	inactive
52	SEMA6C	-0.27	migration z between -2 and 2; enough cells	0.82	5496	inactive
53	CCNG2	0.6	migration z between -2 and 2; enough cells	0.92	5654	inactive
54	RBBP8NL	-0.72	migration z between -2 and 2; enough cells	0.7	5256	inactive
55	KDELR3	-1.35	migration z between -2 and 2; enough cells	0.54	5442	inactive
56	CD28	0.78	migration z between -2 and 2; enough cells	1.09	6123	inactive
57	RBAK	-1.73	migration z between -2 and 2; enough cells	0.44	6886	inactive
